# Measured values from the supplement of paper PMC8728848.
# The other results are listed elsewhere or left out.
# B1: Intelectin 1 (Homo sapiens), Q8WWA0 (protein)
# chain: MNQLSFLLFLIATTRGWSTDEANTYFKEWTCSSSPSLPRSCKEIKDECPSAFDGLYFLRTENGVIYQTFCDMTSGGGGWTLVASVHENDMRGKCTVGDRWSSQQGSKAVYPEGDGNWANYNTFGSAEAATSDDYKNPGYYDIQAKDLGIWHVPNKSPMQHWRNSSLLRYRTDTGFLQTLGHNLFGIYQKYPVKYGEGKCWTDNGPVIPVVYDFGDAQKTASYYSPYGQREFTAGFVQFRVFNNERAANALCAGMRVTGCNTEHHCIGGGGYFPEASPQQCGDFSGFDWSGYGTHVGYSSSREITEAAVLLFYR
# Experiments:
# Experiment in all cases: glycan array binding signal (z-score within array); higher = stronger binding
# Conditions in all cases: glycan notation: IUPAC condensed, linker removed
# [1] = biological target: GlcNAc(a1-4)Gal(b1-4)GlcNAc(b1-3)Gal(b1-4)GlcNAc
# Summary of the method: (§1)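 From the Consortium for Functional Glycomics database, 3228 arrays were curated, keeping only those whose protein sequence was available. Binding is given as a within-array Z-score averaged across arrays sharing a protein sequence and across linkers. Negative Z-scores can be read as non-binding.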
# [2] = biological target: GlcNAc(a1-4)Gal(b1-4)GlcNAc(b1-3)Gal(b1-4)GlcNAc(b1-3)Gal(b1-4)GlcNAc
# Summary of the method: as §1
# [3] = biological target: GlcNAc(a1-4)Gal(b1-4)GlcNAc(b1-3)Gal(b1-4)[Fuc(a1-3)]GlcNAc(b1-3)Gal(b1-4)[Fuc(a1-3)]GlcNAc
# Summary of the method: as §1
# [4] = biological target: GlcNAc(a1-6)Gal(b1-4)GlcNAc
# Summary of the method: as §1
# [5] = biological target: GlcNAc(b1-2)Gal(b1-3)GalNAc
# Summary of the method: as §1
# [6] = biological target: GlcNAc(b1-2)Man(a1-3)[GlcNAc(b1-2)Man(a1-6)]Man(b1-4)GlcNAc(b1-4)GlcNAc
# Summary of the method: as §1
# [7] = biological target: GlcNAc(b1-2)Man(a1-3)[GlcNAc(b1-2)Man(a1-6)]Man(b1-4)GlcNAc(b1-4)[Fuc(a1-6)]GlcNAc
# Summary of the method: as §1
# [8] = biological target: GlcNAc(b1-2)Man(a1-3)[GlcNAc(b1-4)][GlcNAc(b1-2)Man(a1-6)]Man(b1-4)GlcNAc(b1-4)GlcNAc
# Summary of the method: as §1
# [9] = biological target: GlcNAc(b1-2)[GlcNAc(b1-4)]Man(a1-3)[GlcNAc(b1-2)Man(a1-6)]Man(b1-4)GlcNAc(b1-4)GlcNAc
# Summary of the method: as §1
# [10] = biological target: GlcNAc(b1-2)[GlcNAc(b1-4)]Man(a1-3)[GlcNAc(b1-4)][GlcNAc(b1-2)Man(a1-6)]Man(b1-4)GlcNAc(b1-4)GlcNAc
# Summary of the method: as §1
# [11] = biological target: GlcNAc(b1-2)[GlcNAc(b1-4)]Man(a1-3)[GlcNAc(b1-4)][GlcNAc(b1-2)[GlcNAc(b1-6)]Man(a1-6)]Man(b1-4)GlcNAc(b1-4)GlcNAc
# Summary of the method: as §1
# [12] = biological target: GlcNAc(b1-2)[GlcNAc(b1-6)]Man(a1-6)[GlcNAc(b1-2)Man(a1-3)]Man(b1-4)GlcNAc(b1-4)GlcNAc
# Summary of the method: as §1
# [13] = biological target: GlcNAc(b1-2)[GlcNAc(b1-6)]Man(a1-6)[GlcNAc(b1-2)Man(a1-3)][GlcNAc(b1-4)]Man(b1-4)GlcNAc(b1-4)GlcNAc
# Summary of the method: as §1
# GlcNAc(b1-3)Gal = biological target: GlcNAc(b1-3)Gal
# Summary of the method: as §1
# [14] = biological target: GlcNAc(b1-3)Gal(b1-3)GalNAc
# Summary of the method: as §1
# GlcNAc(b1-3)Gal(b1-4)Glc = biological target: GlcNAc(b1-3)Gal(b1-4)Glc
# Summary of the method: as §1
# [15] = biological target: GlcNAc(b1-3)Gal(b1-4)GlcNAc
# Summary of the method: as §1
# [16] = biological target: GlcNAc(b1-3)Gal(b1-4)GlcNAc(b1-3)Gal(b1-4)GlcNAc
# Summary of the method: as §1
# GlcNAc(b1-3)GalNAc = biological target: GlcNAc(b1-3)GalNAc
# Summary of the method: as §1
# GlcNAc(b1-3)Man = biological target: GlcNAc(b1-3)Man
# Summary of the method: as §1
# [17] = biological target: GlcNAc(b1-3)[GlcNAc(b1-4)][GlcNAc(b1-6)]GlcNAc
# Summary of the method: as §1
# [18] = biological target: GlcNAc(b1-3)[GlcNAc(b1-6)]Gal(b1-4)GlcNAc
# Summary of the method: as §1
# [19] = biological target: GlcNAc(b1-3)[GlcNAc(b1-6)]GalNAc
# Summary of the method: as §1
# [20] = biological target: GlcNAc(b1-4)Gal(b1-4)GlcNAc
# Summary of the method: as §1
# GlcNAc(b1-4)GlcNAc = biological target: GlcNAc(b1-4)GlcNAc
# Summary of the method: as §1
# [21] = biological target: GlcNAc(b1-4)GlcNAc(b1-4)GlcNAc
# Summary of the method: as §1
# [22] = biological target: GlcNAc(b1-4)GlcNAc(b1-4)GlcNAc(b1-4)GlcNAc(b1-4)GlcNAc
# Summary of the method: as §1
# [23] = biological target: GlcNAc(b1-4)GlcNAc(b1-4)GlcNAc(b1-4)GlcNAc(b1-4)GlcNAc(b1-4)GlcNAc
# Summary of the method: as §1
# [24] = biological target: GlcNAc(b1-4)[GlcNAc(b1-6)]GalNAc
# Summary of the method: as §1
# [25] = biological target: GlcNAc(b1-6)Gal(b1-4)GlcNAc
# Summary of the method: as §1
# GlcNAc(b1-6)GalNAc = biological target: GlcNAc(b1-6)GalNAc
# Summary of the method: as §1
# GlcNAc3Prop(b1-4)GlcNAc = biological target: GlcNAc3Prop(b1-4)GlcNAc
# Summary of the method: as §1
# [26] = biological target: GlcNAc6S(b1-3)Gal(b1-4)GlcNAc
# Summary of the method: as §1
# Kdn(a2-3)Gal(b1-3)GalNAc = biological target: Kdn(a2-3)Gal(b1-3)GalNAc
# Summary of the method: as §1
# Kdn(a2-3)Gal(b1-3)GlcNAc = biological target: Kdn(a2-3)Gal(b1-3)GlcNAc
# Summary of the method: as §1
# Kdn(a2-3)Gal(b1-4)Glc = biological target: Kdn(a2-3)Gal(b1-4)Glc
# Summary of the method: as §1
# Kdn(a2-3)Gal(b1-4)GlcNAc = biological target: Kdn(a2-3)Gal(b1-4)GlcNAc
# Summary of the method: as §1
binder,measurement,setting,value
B1,glycan array binding signal (z-score),[1],3.85
same,glycan array binding signal (z-score),[2],0.337
same,glycan array binding signal (z-score),[3],3.27
same,glycan array binding signal (z-score),[4],0.578
same,glycan array binding signal (z-score),[5],0.637
same,glycan array binding signal (z-score),[6],-0.457
same,glycan array binding signal (z-score),[7],0.183
same,glycan array binding signal (z-score),[8],-0.134
same,glycan array binding signal (z-score),[9],-0.518
same,glycan array binding signal (z-score),[10],-0.37
same,glycan array binding signal (z-score),[11],0.236
same,glycan array binding signal (z-score),[12],0.657
same,glycan array binding signal (z-score),[13],0.148
same,glycan array binding signal (z-score),GlcNAc(b1-3)Gal,-0.157
same,glycan array binding signal (z-score),[14],0.322
same,glycan array binding signal (z-score),GlcNAc(b1-3)Gal(b1-4)Glc,-0.656
same,glycan array binding signal (z-score),[15],-1.16
same,glycan array binding signal (z-score),[16],-0.062
same,glycan array binding signal (z-score),GlcNAc(b1-3)GalNAc,1.24
same,glycan array binding signal (z-score),GlcNAc(b1-3)Man,-1.19
same,glycan array binding signal (z-score),[17],-0.034
same,glycan array binding signal (z-score),[18],0.046
same,glycan array binding signal (z-score),[19],-0.008
same,glycan array binding signal (z-score),[20],0.495
same,glycan array binding signal (z-score),GlcNAc(b1-4)GlcNAc,-0.139
same,glycan array binding signal (z-score),[21],0.712
same,glycan array binding signal (z-score),[22],-0.02
same,glycan array binding signal (z-score),[23],-0.987
same,glycan array binding signal (z-score),[24],-0.57
same,glycan array binding signal (z-score),[25],0.154
same,glycan array binding signal (z-score),GlcNAc(b1-6)GalNAc,-0.353
same,glycan array binding signal (z-score),GlcNAc3Prop(b1-4)GlcNAc,-0.496
same,glycan array binding signal (z-score),[26],-0.014
same,glycan array binding signal (z-score),Kdn(a2-3)Gal(b1-3)GalNAc,-0.099
same,glycan array binding signal (z-score),Kdn(a2-3)Gal(b1-3)GlcNAc,0.228
same,glycan array binding signal (z-score),Kdn(a2-3)Gal(b1-4)Glc,0.5
same,glycan array binding signal (z-score),Kdn(a2-3)Gal(b1-4)GlcNAc,0.657
